# Reference: the supplement of paper PMC3334620
# In all, about 33,000 sequences were measured (“E-score (-0.5 to 0.5)”: median about -0.015, highest 2% from about 0.3 on). The list shows a part of the results.
# Target: T1, Abf1 (UniProt P14164)
# T1 sequence: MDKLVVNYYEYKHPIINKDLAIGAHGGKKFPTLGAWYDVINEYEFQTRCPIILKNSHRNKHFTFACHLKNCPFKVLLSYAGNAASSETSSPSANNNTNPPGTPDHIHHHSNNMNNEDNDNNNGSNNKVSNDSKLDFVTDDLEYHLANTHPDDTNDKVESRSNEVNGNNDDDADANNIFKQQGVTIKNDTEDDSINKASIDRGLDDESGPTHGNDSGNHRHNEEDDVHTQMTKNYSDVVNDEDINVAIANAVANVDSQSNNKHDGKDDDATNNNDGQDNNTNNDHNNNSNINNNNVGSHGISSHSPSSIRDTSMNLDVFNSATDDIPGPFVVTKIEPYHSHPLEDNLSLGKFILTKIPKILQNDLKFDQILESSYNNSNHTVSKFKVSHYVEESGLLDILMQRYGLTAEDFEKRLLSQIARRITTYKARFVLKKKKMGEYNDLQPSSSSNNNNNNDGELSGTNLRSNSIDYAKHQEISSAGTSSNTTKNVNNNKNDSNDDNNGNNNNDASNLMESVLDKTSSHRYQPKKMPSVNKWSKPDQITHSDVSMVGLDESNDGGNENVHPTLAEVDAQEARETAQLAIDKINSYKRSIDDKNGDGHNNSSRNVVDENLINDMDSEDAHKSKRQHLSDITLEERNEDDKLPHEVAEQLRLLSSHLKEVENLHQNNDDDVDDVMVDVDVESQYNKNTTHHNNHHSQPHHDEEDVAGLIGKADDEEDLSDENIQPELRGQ
# Experiment: PBM E-score (8-mer binding enrichment) (E-score (-0.5 to 0.5)); higher = stronger / more preferred TF binding
# Conditions: protein concentration: 200 nM; construct: GST-full length
# Experimental: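 Universal 'all 10-mer' protein binding microarrays (Agilent AMADID 015681) probed with GST-tagged S. cerevisiae TFs (full-length or DBD) made by in vitro transcription/translation (PURExpress), about 100-200 nM. Bound TF was detected with fluorescent anti-GST. Each ungapped 8-mer (which stands for itself and its reverse complement) is scored by the PBM enrichment score (E-score), a modified Wilcoxon-Mann-Whitney statistic from -0.5 to +0.5, computed with the Universal PBM Analysis Suite. Scale: above 0.35 generally sequence-specific binding.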
row,Sequence,PBM E-score
1,AGGCTCAC,-0.135
2,TCTTGGAA,-0.00047
3,AGGCCACC,-0.154
4,AGAATAAT,0.0573
5,TAAAAGCA,-0.0293
6,GGACGAAA,0.0999
7,GATCTTGA,0.0915
8,CCAACAAC,0.05
9,AAGCGCCG,-0.00412
10,ATGTTTGG,-0.139
11,CCTCTACA,-0.245
12,AAAGTTGA,0.0822
13,CTGTCACC,0.174
14,CATGTCAG,0.0449
15,CTTTAAAG,-0.149
16,CTAGAATC,-0.0573
17,GCTTGGCC,-0.0864
18,CATCACTC,0.385
19,TCAGCCCA,0.00832
20,GAAGCCTA,-0.00417
21,GATCAAAC,-0.0256
22,AGTGAGCC,-0.0656
23,AGTTGACG,0.16
24,CACTAACA,-0.0249

row,Sequence,PBM E-score
1,ATCGTCAT,0.349
2,ACACGAAC,0.268
3,CGTTTCAC,0.0723
4,CGGGGCAA,-0.0557
5,CCTTCAAC,-0.146
6,CCCGTACG,0.348
7,CCTGCCTC,-0.11
8,ACGACTGG,-0.0237
9,CAGGATCC,-0.143
10,AGACTATA,0.14
11,AATTTCCT,-0.00613
12,CGACGTCA,0.123
13,CAATTAAA,0.0121
14,AGTAAACC,-0.0876
15,TTAGAGAA,-0.155
16,CACGGACG,0.337
17,CGCTTGCC,-0.0145
18,ATGCCTCC,-0.243
19,CCCTCAGA,-0.0913
20,CGGACACA,-0.101
21,ACCGAAGT,-0.00667
22,GGGAGGAC,-0.108
23,AATAGTCC,-0.159
24,GAACCCCC,-0.405

row,Sequence,PBM E-score
1,CGAATTCC,-0.0103
2,AGTCCCAC,-0.232
3,GAGCATAC,0.109
4,ACAACCAA,0.178
5,AAAGCTTA,-0.0456
6,TCACTTCA,0.21
7,CGAAATAA,0.17
8,GCAACAAC,0.124
9,ATGCAATA,-0.0124
10,GCCTGGCA,-0.344
11,AATAAAAT,0.2
12,ATCTCCAC,0.0493
13,AGCACCGG,-0.224
14,GGTGTAGA,-0.0583
15,AGACATCT,0.11
16,AGCATCCT,-0.21
17,AAGCGTTC,-0.219
18,GATTCCCA,-0.0251
19,ATTAGTCC,-0.0426
20,AAGACACC,-0.179
21,AAACTAAC,0.0188
22,AGACAACA,-0.111
23,TCTCTCAA,0.0685
24,ACAAATAT,0.104

row,Sequence,PBM E-score
1,GGAGCGTA,0.0134
2,ACTCGTTA,0.0993
3,AGGTTTGA,-0.188
4,AAGAGGAA,-0.0719
5,CTGGTAAG,-0.022
6,ACATATTA,0.233
7,TCAGCGCA,0.0776
8,ATGTGTGG,-0.0528
9,GATGCGCA,0.0666
10,GGCGGTAC,0.0588
11,AACCGATT,0.0401
12,CGAACCAC,-0.0685
13,AGTGCTCC,-0.0728
14,AGAATCAG,-0.0824
15,GAGTAATC,0.00056
16,GCTGGACC,-0.246
17,AAAATGTT,0.134
18,GTAAATCA,0.263
19,ATGTATCA,0.267
20,GACTGCTC,-0.108
21,CGGAACAG,-0.026
22,GAAGCCGC,0.0771
